# In PubChem BioAssay AID248 (DTP/NCI, 2004):
# The list shows only some results of the screen, not a fair sample: it gathers tests that were run many times, whatever their T/C, doses with no T/C, and many T/C values between a quarter and a half above the control. Other doses and runs of a compound stand elsewhere. T/C is the treated group as % of the vehicle group. Some doses have a count of surviving animals in place of a T/C: the source files T/C as zero there, which appears to mark a toxic dose or a test without result, not a measured value. Some survivor counts are full or nearly so, which does not show that the dose was tolerated: the source hardly ever lists a survival T/C far under the control, and the zero likely stands for such cases as well. Survivors were counted at the toxicity check, usually on the fifth day, unless a day is given; later deaths do not show. Schedules are NCI's codes, read here as Q, the interval in days (D) or hours (H), X, the number of doses. Some entries were tested several times; the values are given in rising order. Some schedule codes hold Z or #, which are not explained here. Some molecules as drawn cover several salts, stereoisomers or complexes of the source; a dose is that of the sample tested. Where survival is the endpoint, this PubChem deposit counts one and a half times the control or more as active, and values a quarter to a half above the control carry no call in these data; other NCI protocols may use other cut-offs. Counts like (3×) give the number of equal values in this list.
# Test system: L1210 leukemia ip in BDF1 mice, survival T/C
# Test: NCI In Vivo Anticancer Drug Screen. Data for tumor model L1210 Leukemia (intraperitoneal) in B6D2F1 (BDF1) mice
# Conditions: T/C endpoint: mean survival time, higher T/C = longer survival
# [1] = dose: 300.0 mg/kg/injection, schedule: Q01DX001 (ip), vehicle: saline
# [2] = dose: 200.0 mg/kg/injection, schedule: Q04DX003 (ip), vehicle: saline
# [3] = dose: 400.0 mg/kg/injection, schedule: Q04DX002 (ip), vehicle: saline
# [4] = dose: 100.0 mg/kg/injection, schedule: Q01DX009 (ip), vehicle: gum acacia
# [5] = dose: 200.0 mg/kg/injection, schedule: Q01DX009 (ip), vehicle: gum acacia
# [6] = dose: 400.0 mg/kg/injection, schedule: Q01DX009 (ip), vehicle: gum acacia
# [7] = dose: 200.0 mg/kg/injection, schedule: Q04DX002 (ip), vehicle: saline with Tween-80
structure (smiles),measurement,setting,value
c1ccc(Cn2ccnc2)cc1,survivor count,"dose: 100.0 mg/kg/injection, schedule: Q01DX009 (ip), vehicle: water",0 of 6
same,survivor count,"dose: 150.0 mg/kg/injection, schedule: Q01DX001 (ip), vehicle: saline",0 of 6
same,survivor count,"dose: 200.0 mg/kg/injection, schedule: Q01DX009 (ip), vehicle: water",0 of 6
same,survivor count,[1],0 of 6
same,survivor count,"dose: 400.0 mg/kg/injection, schedule: Q01DX009 (ip), vehicle: water",0 of 6
Clc1nc(Cl)nc(-c2cccn2-c2ccccc2)n1,survivor count,"dose: 12.5 mg/kg/injection, schedule: Q01DX009 (ip), vehicle: saline with Tween-80",6 of 6
same,survivor count,"dose: 25.0 mg/kg/injection, schedule: Q01DX009 (ip), vehicle: saline with Tween-80",5 of 6
same,survivor count,"dose: 50.0 mg/kg/injection, schedule: Q01DX009 (ip), vehicle: saline with Tween-80",0 of 6
same,survivor count,"dose: 100.0 mg/kg/injection, schedule: Q01DX009 (ip), vehicle: saline with Tween-80",0 of 6
same,survivor count,"dose: 200.0 mg/kg/injection, schedule: Q01DX009 (ip), vehicle: saline with Tween-80",0 of 6
same,survivor count,[2],5 of 6
same,survivor count,"dose: 400.0 mg/kg/injection, schedule: Q04DX003 (ip), vehicle: acetone",3 of 6
O=P(Oc1ccccc1)(N1CCCC1)N1CCCC1,survivor count,[3],1 of 3
CC(C)(C)CC(C)(C)NCC(O)COc1ccc(C(C)(C)c2ccc(OCC(O)CNC(C)(C)CC(C)(C)C)cc2)cc1 (centres undefined),survivor count,"dose: 25.0 mg/kg/injection, schedule: Q01DX001 (ip), vehicle: saline sonified",6 of 6
same,survivor count,"dose: 50.0 mg/kg/injection, schedule: Q04DX003 (ip), vehicle: other",0 of 6
c1ccc([Se+](c2ccccc2)c2ccccc2)cc1,survivor count,"dose: 0.9 mg/kg/injection, schedule: Q01DX009 (ip), vehicle: Klucel (hydroxypropylcellulose) (HPC)",0 of 6
same,survivor count,"dose: 1.56 mg/kg/injection, schedule: Q01DX009 (ip), vehicle: saline",5 of 6
same,survivor count,"dose: 3.12 mg/kg/injection, schedule: Q01DX009 (ip), vehicle: saline",0 of 6
same,survivor count,"dose: 6.25 mg/kg/injection, schedule: Q01DX009 (ip), vehicle: saline",0 of 6
same,survivor count,"dose: 12.5 mg/kg/injection, schedule: Q01DX009 (ip), vehicle: saline",0 of 6
same,survivor count,"dose: 25.0 mg/kg/injection, schedule: Q01DX009 (ip), vehicle: saline",0 of 6
same,survivor count,"dose: 25.0 mg/kg/injection, schedule: Q04DX002 (ip), vehicle: saline",0 of 3
same,survivor count,"dose: 50.0 mg/kg/injection, schedule: Q04DX002 (ip), vehicle: saline",0 of 3
same,survivor count,"dose: 100.0 mg/kg/injection, schedule: Q04DX002 (ip), vehicle: saline",0 of 3
same,survivor count,"dose: 200.0 mg/kg/injection, schedule: Q04DX002 (ip), vehicle: saline",0 of 3
same,survivor count,[3],0 of 3
Cc1cc2c(c3oc(C4(C)OC4C4OC4C)cc(=O)c13)C(=O)c1c(O)c(C3CC(C)(N(C)C)C(O)C(C)O3)cc(C3CC(N(C)C)C(O)C(C)O3)c1C2=O (centres undefined),survivor count,"dose: 0.24 mg/kg/injection, schedule: Q01DX009 (ip), vehicle: other",10 of 10
same,survivor count,"dose: 0.48 mg/kg/injection, schedule: Q01DX009 (ip), vehicle: other",10 of 10
same,survivor count,"dose: 0.48 mg/kg/injection, schedule: Q01DX009 (ip), vehicle: saline",10 of 10
same,survivor count,"dose: 0.96 mg/kg/injection, schedule: Q01DX009 (ip), vehicle: other",10 of 10
same,survivor count,"dose: 0.96 mg/kg/injection, schedule: Q01DX009 (ip), vehicle: saline",10 of 10
same,T/C,"dose: 24.0 micrograms/kg/injection, schedule: Q01DX015 (ip), vehicle: saline",127 % of control
same,T/C,"dose: 37.0 micrograms/kg/injection, schedule: Q01DX001 (ip), vehicle: carboxymethylcellulose (CMC)",125 % of control
same,T/C,"dose: 48.0 micrograms/kg/injection, schedule: Q01DX015 (ip), vehicle: saline",127 % of control
same,survivor count,"dose: 100.0 micrograms/kg/injection, schedule: Q01DX Z (ip), vehicle: carboxymethylcellulose (CMC)",6 of 6
same,survivor count,"dose: 150.0 micrograms/kg/injection, schedule: Q01DX001 (ip), vehicle: carboxymethylcellulose (CMC)",2 of 6
same,survivor count,"dose: 192.0 micrograms/kg/injection, schedule: Q01DX015 (ip), vehicle: saline",6 of 6
same,survivor count,"dose: 200.0 micrograms/kg/injection, schedule: Q01DX Z (ip), vehicle: carboxymethylcellulose (CMC)",2 of 6
same,survivor count,"dose: 300.0 micrograms/kg/injection, schedule: Q01DX001 (ip), vehicle: carboxymethylcellulose (CMC)",0 of 6
[Tl][CH]1C=CC=C1,survivor count,"dose: 200.0 mg/kg/injection, schedule: Q01DX001 (ip), vehicle: acetone",2 of 6
same,survivor count,"dose: 400.0 mg/kg/injection, schedule: Q01DX001 (ip), vehicle: acetone",0 of 6
Cc1cc([N+](=O)[O-])c([N+](=O)[O-])cc1Cl,survivor count,"dose: 400.0 mg/kg/injection, schedule: Q01DX001 (ip), vehicle: Klucel (hydroxypropylcellulose) (HPC)",2 of 6
CC(C)(C)c1cc(/C=N/NC(=O)CNC(=O)Nc2cccc(C(F)(F)F)c2)cc(C(C)(C)C)c1O,T/C,[4],86 and 93 % of control
same,survivor count,[4],3 of 3 and 6 of 6
same,T/C,[5],90 % of control (2×)
same,survivor count,[5],3 of 3 and 6 of 6
same,survivor count,"dose: 200.0 mg/kg/injection, schedule: Q04DX002 (ip), vehicle: gum acacia",3 of 3
same,T/C,[6],90 % of control (2×)
same,survivor count,[6],3 of 3 and 6 of 6
CN1CCC(OC2c3ccccc3CCc3ccccc32)CC1,survivor count,"dose: 200.0 mg/kg/injection, schedule: Q01DX009 (ip), vehicle: saline",0 of 6
same,survivor count,[2],0 of 4
same,survivor count,"dose: 400.0 mg/kg/injection, schedule: Q01DX009 (ip), vehicle: saline",0 of 6
same,survivor count,"dose: 400.0 mg/kg/injection, schedule: Q04DX003 (ip), vehicle: saline",0 of 4
CCCCCCCCCCCCCCCN(CCCl)CCCl,survivor count,"dose: 400.0 mg/kg/injection, schedule: Q01DX001 (ip), vehicle: carboxymethylcellulose (CMC)",0 of 4
O=C1CC2CCC1C2Cl (centres undefined),survivor count,"dose: 100.0 mg/kg/injection, schedule: Q04DX003 (ip), vehicle: saline with Tween-80",5 of 6
same,survivor count,"dose: 200.0 mg/kg/injection, schedule: Q04DX003 (ip), vehicle: saline with Tween-80",0 of 6
same,survivor count,"dose: 400.0 mg/kg/injection, schedule: Q01DX001 (ip), vehicle: saline with Tween-80",0 of 6
CC(C)(C)c1cc(C[N+](C)(C)C)cc(C(C)(C)C)n1,survivor count,[7],1 of 3
CC(=O)C(C)[P+](c1ccccc1)(c1ccccc1)c1ccccc1 (centres undefined),survivor count,"dose: 50.0 mg/kg/injection, schedule: Q04DX003 (ip), vehicle: water",3 of 6
same,survivor count,"dose: 100.0 mg/kg/injection, schedule: Q04DX003 (ip), vehicle: water",2 of 6
same,survivor count,"dose: 200.0 mg/kg/injection, schedule: Q04DX003 (ip), vehicle: water",0 of 6
same,survivor count,"dose: 400.0 mg/kg/injection, schedule: Q04DX003 (ip), vehicle: water",0 of 6
O=c1[nH]c(-c2ccccc2N=NN2CCCCC2)nc2ccccc12,survivor count,[7],3 of 3
C/C=C/CC1(CC)C(=O)NC(=O)NC1=O,survivor count,[1],0 of 6
COc1ccc(NC(=O)Oc2ccc(C=O)cc2OC)c(OC)c1,survivor count,"dose: 100.0 mg/kg/injection, schedule: Q01DX009 (ip), vehicle: Klucel (hydroxypropylcellulose) (HPC)",6 of 6
same,survivor count,"dose: 200.0 mg/kg/injection, schedule: Q01DX009 (ip), vehicle: Klucel (hydroxypropylcellulose) (HPC)",5 of 6
same,survivor count,"dose: 400.0 mg/kg/injection, schedule: Q01DX009 (ip), vehicle: Klucel (hydroxypropylcellulose) (HPC)",3 of 6
COC(=O)C1=C(c2ccncc2)c2cccc3cccc1c23,survivor count,"dose: 400.0 mg/kg/injection, schedule: Q04DX003 (ip), vehicle: alcohol",1 of 6
NC(=O)C1(N2CCCC2)CCN(Cc2ccccc2)CC1,survivor count,"dose: 400.0 mg/kg/injection, schedule: Q04DX003 (ip), vehicle: Klucel (hydroxypropylcellulose) (HPC)",1 of 6
